Measured values from PubChem BioAssay AID2685 (National Center for Advancing Translational Sciences (NCATS), 2010).
The other results are listed elsewhere or left out. The main result of the screen is listed elsewhere. These columns were measured beside it and carry no call. Compounds called inactive in the main read-out are mostly missing here. Potencies come from curve fits of mixed quality, noted in brackets.

Assay: qHTS Assay for Lipid Storage Modulators in Drosophila S3 Cells;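 for cell number change: cells counted by Cell Tracker Red CMTPX staining in the red channel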
Settings: BODIPY lipid droplet fluorescence, 18-24 h; for cell number change: measured here: cell count max response, cells fed with added oleic acid
Outline: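 Drosophila S3 cells got compounds at several concentrations plus oleic acid (400 uM solution). Laser-scanning cytometry with 488 nm excitation read lipid droplets at 500-530 nm and cells at 575-640 nm. Percent activity was relative to 20 uM Triacsin C.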

[1] = measured here: lipid fluorescence (Fed channel) AC50, cells fed with added oleic acid
[2] = measured here: cell number channel AC50, cells fed with added oleic acid

SMILES | cell number change [%] | AC50 [1] | AC50 [2]
O=C(NCCN1CCN(c2ccccc2)CC1)Nc1cccc(Cl)c1 | -9.09 | 18.4 µM [falling, partial curve] | 
Cc1ccc(S(=O)(=O)N2CC(O)CC2C(=O)NCc2ccc3c(c2)OCO3)cc1 (centres undefined) | -24 | 20.6 µM [falling, single point] | 4.61 µM [falling, full curve, poor fit]
COc1ccc(S(=O)(=O)n2c([N+](=O)[O-])cnc2C)cc1OC | 6.42 | 29.1 µM [rising, single point] | 
Cc1ccc(NC(=O)c2ccccc2Cl)c(Cl)c1 | 46.9 | 3.26 µM [rising, partial curve] | 9.2 µM [rising, partial curve]
COc1ccc(C(=O)NCCN2CCCC2)cc1[N+](=O)[O-] | 34.5 |  | 0.82 µM [rising, full curve, poor fit]
O=C(Cn1nnc2ccccc2c1=O)Nc1ccc2c(c1)CCC2 | -0.786 |  | 
CCS(=O)(=O)N1CCC(C(=O)Nc2cccc(F)c2)CC1 | -5.25 | 5.17 µM [rising, full curve] | 
Cc1onc(-c2ccccc2)c1C(=O)Nc1ccccc1NC(=O)c1c(-c2ccccc2)noc1C | 17 | 0.058 µM [rising, full curve, poor fit] | 
CCOc1ccc(OCCC(=O)OCC(=O)Nc2ccc3c(c2)OCO3)cc1 | 4.5 |  | 
CCN(CC)Cc1c(O)c(Cl)cc2c(C)cc(=O)oc12 | -26 | 0.731 µM [falling, full curve] | 
CC(=O)Nc1ccc(NC(=O)CSc2ccc3nnc(-c4cccnc4)n3n2)cc1 | 11.4 | 0.0291 µM [rising, full curve, poor fit] | 
CCN(CC(=O)Nc1ccc(NC(C)=O)cc1)C(=O)/C=C/c1cccs1 | 2.46 | 0.00517 µM [rising, full curve, poor fit] | 
COc1ccc(-c2[nH]n(-c3ccc([N+](=O)[O-])cc3)c(=O)c2C=NCc2ccccc2)cc1 | -14.3 |  | 
CCC(C(=O)NCc1ccco1)N(C(=O)CNS(=O)(=O)c1ccccc1)C1CCCCC1 (centres undefined) | -55.9 |  | 32.6 µM [falling, single point]
COc1ccccc1NC(=O)N1CCC(NC(=O)C(Cc2ccccc2F)NC(C)=O)CC1 (centres undefined) | 10.3 | 0.116 µM [falling, single point] | 
COc1cccc(C(=O)NC(=S)NCc2ccco2)c1 | 36.1 | 1.84 µM [rising, partial curve] | 11.6 µM [rising, partial curve]
COc1ccc(CCC(=O)NC2CCCc3ccccc32)cc1OC (centres undefined) | 4.96 | 29.1 µM [rising, partial curve, poor fit] | 

Random excerpt: two compounds from above.
SMILES | cell number change [%] | AC50 [1] | AC50 [2]
CCS(=O)(=O)N1CCC(C(=O)Nc2cccc(F)c2)CC1 | -5.25 | 5.17 µM [rising, full curve] | 
CCC(C(=O)NCc1ccco1)N(C(=O)CNS(=O)(=O)c1ccccc1)C1CCCCC1 (centres undefined) | -55.9 |  | 32.6 µM [falling, single point]
